Source: patent US20210230213A1, “ARAMCHOL SALTS” (GALMED RESEARCH AND DEVELOPMENT LTD., priority 2013, published 2021)
Some of these results come from one statement about several compounds together. At least one structure is not confirmed: it was looked up by name or label, or the drawing left a doubt.

Settings: 50° C.

## c1ccc(CNCCNCc2ccccc2)cc1 [Benzathine]
  soluble in ethanol: > 50 mg/mL
